Experimental data reported in PubChem BioAssay AID504834 (National Center for Advancing Translational Sciences (NCATS), 2011).
Out of some 320,000 compounds screened, about 22,000 (6.9%) were called active. The shares of active, inactive and inconclusive entries below differ from those in the screen. The call rests on the fitted dose curve; in most records, active means well fitted inhibition curve with a large enough effect; inconclusive means small, poorly fitted or top-dose-only effect, or another doubt; inactive means no such curve, though single readings can be large or run the other way. A potency beside an inconclusive call is a rough fit, not a confirmed value.

Assay: Primary qHTS for delayed death inhibitors of the malarial parasite plastid, 96 hour incubation
Conditions: P. falciparum luciferase reporter growth; series mostly up to 28.7 µM; activity change, negative = inhibition: at the top concentration
Summary of the method: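 P. falciparum expressing integrated firefly luciferase, in erythrocytes at 2% hematocrit, 0.05% parasitemia, incubated with compounds 96 h at 37 C, 5% CO2. Growth inhibition read as loss of luminescence; two-generation exposure targets delayed-death apicoplast inhibitors.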
On the % scale 0 is the no-effect control and ±100 the full control effect; potency means the concentration at half of the fitted maximal effect.

Row | SMILES | Potency | activity change, negative = inhibition
1 | CC(=O)NC(Cc1cccc(C)c1)C(=O)NC1CCN(C(=O)c2ccc([N+](=O)[O-])cc2)CC1 (stereo not drawn) | inconclusive: 18.5 µM [inhibitor, single point] | 
2 | Cc1noc(C)c1S(=O)(=O)N1CCCC(C(=O)NCc2ccccc2Cl)C1 (stereo not drawn) | active: 5.86 µM | 
3 | CCn1c(=O)c(=O)[nH]c2cc(C(=O)N3CCN(c4ccccc4F)CC3)ccc21 | inconclusive: 16.5 µM [inhibitor, single point] | 
4 | CC(C)(C)n1nnnc1C(c1cccc(C#N)c1)N1CCCc2ccccc21 (stereo not drawn) |  | inactive: 22.9%
5 | N#CC1=C(N)C2=C(N3CCCCC3)CCCC2C1(C#N)C#N (stereo not drawn) | active: 11.7 µM | 
6 | Cc1ccc(C(=O)COC(=O)c2cc(=O)[nH]c3ccccc23)cc1C |  | inactive: -5.06%
7 | Cc1cc(Nc2cccc(Cl)c2)nc(N2CCOCC2)n1 |  | inactive: 9.46%
8 | CCc1ccc(C2=NN(CCC(=O)N3CCC4(CC3)OCCO4)C(=O)CC2)cc1 | inconclusive: 9.28 µM [inhibitor, partial curve, poor fit] | 
9 | Cc1cccc(C(=O)NC(=S)NNC(=O)Cc2ccccc2)c1 | inconclusive: 18.5 µM [inhibitor, single point] | 
10 | CCOc1cc(C(=O)OCc2ccc(C(=O)OC)o2)cc(Br)c1OC |  | inactive: 20.7%
11 | COc1c[nH]n(C2CCCCC2)c(=O)c1=O | inconclusive: 18.5 µM [inhibitor, single point] | 
12 | Cc1ccc2c(CN3CCCCC3C)cc(=O)oc2c1C (stereo not drawn) | inconclusive: 11.7 µM [inhibitor, single point] | 
13 | CC(C)(C)c1cc2nc(N)nc(N)n2n1 | inconclusive: 8.28 µM [inhibitor, partial curve, poor fit] | 
14 | Cc1ccc(-c2nc(SCC(N)=O)c(C#N)c3c2CCCC3)cc1 | inconclusive: 0.0033 µM [inhibitor, full curve] | 
15 | COc1cccc(OCC(O)CN2C(C)CCCC2C)c1 (stereo not drawn) |  | inactive: -4.57%
16 | OCCCNC(=S)Nc1ccc(Nc2ccccc2)cc1 |  | inactive: 16.8%
17 | O=C(NCc1ccco1)C(C(=O)c1ccc(F)cc1)n1ccccc1=O (stereo not drawn) |  | inactive: 238%
18 | O=C(CCCC(=O)N(c1ccc2c(c1)OCCO2)C(C(=O)NC1CCCCC1)c1ccc(Cl)cc1)Nc1ccccn1 (stereo not drawn) | inconclusive: 8.28 µM [inhibitor, partial curve] | 
19 | CCOc1cc(C2CC(=O)NC3=C2C(=O)C(C(=O)OC)C(C)C3)cc(Br)c1O (stereo not drawn) |  | inactive: 23.3%
20 | CC1CN(CCOc2ccc(F)cc2)CC(C)O1 (stereo not drawn) |  | inactive: -4.38%
21 | Cc1occc1C(=O)NNC(=O)c1ccccc1F |  | inactive: -1.65%
22 | CCOC(=O)c1cnc(-n2nc(C)cc2C)nc1Nc1ccc(OC)cc1 | active: 1.85 µM | 
23 | CSCCC(C(=O)N1CC2(C)CC1CC(C)(C)C2)N1C(=O)c2ccccc2C1=O (stereo not drawn) | active: 13.1 µM | 
24 | O=C(CSc1cccc2cccnc12)Nc1cccc(S(=O)(=O)N2CCOCC2)c1 | inconclusive: 9.28 µM [inhibitor, partial curve] | 
25 | CN(C)S(=O)(=O)c1ccc(Oc2ccccc2)cc1 | inconclusive: 18.5 µM [inhibitor, single point] | 
26 | COc1ccc(CNC(=O)Cn2cccc2C(=O)c2ccccc2C)cc1 | inconclusive: 4.65 µM [inhibitor, partial curve] | 

Row | SMILES | Potency | activity change, negative = inhibition
27 | COCCNC(=O)CN(C(=O)Cn1nnc2ccccc21)c1ccccc1C |  | inactive: 13.1%
28 | CCC(=O)NC(Nc1nc(C)cs1)(C(=O)OC)C(F)(F)F (stereo not drawn) |  | inactive: -6.59%
29 | Cc1cccc(C)c1-n1c(C)cc(/C=C2\C(=O)NN(c3ccccc3)C2=O)c1C | inconclusive: 0.0117 µM [inhibitor, full curve, poor fit] | 
30 | CS(=O)(=O)N(Cc1ccccc1)c1ccccc1C(=O)N1CCN(c2ccccc2)CC1 | inconclusive: 11.7 µM [inhibitor, partial curve] | 
31 | N#CC1=C(N)N(c2ccc(F)cc2)C(=O)C1 | inconclusive: 18.5 µM [inhibitor, single point] | 
32 | CCc1nc(C)ccc1OCC(=O)N1CCc2c([nH]c3ccccc23)C1c1ccccn1 (stereo not drawn) |  | inactive: 7.81%
33 | Cc1nc2cc(Cl)c(Cl)cc2n1-c1ccccn1 |  | inactive: 88.4%
34 | COC(=O)c1ccc(C(=O)OC)c(NC(=O)CSCc2ccc(Br)cc2)c1 | inconclusive: 0.0657 µM [inhibitor, full curve, poor fit] | 
35 | O=C(/C=C/c1ccc(S(=O)(=O)N2CCOCC2)cc1)NC(=S)Nc1ccc(N2CCOCC2)cc1 | inconclusive: 14.7 µM [inhibitor, single point] | 
36 | Cc1cccc(C)c1N(CC(=O)NCc1ccccc1)C(=O)c1csnn1 | inconclusive: 11.7 µM [inhibitor, partial curve] | 
37 | Cc1nc(C(=O)Nc2ccccc2Cl)cc2c1[nH]c1ccccc12 | inconclusive: 1.85 µM [inhibitor, partial curve] | 
38 | Cc1nnc2c(N(C)S(=O)(=O)c3ccccc3)nc3ccccc3n12 | inconclusive: 18.5 µM [inhibitor, partial curve, poor fit] | 
39 | COc1ccc(C)cc1S(=O)(=O)N1CCCC(C(=O)N2CCN(c3ccccc3)CC2)C1 (stereo not drawn) | active: 10.4 µM | 
40 | Cc1cccc(NC(=O)c2ccc(Cl)nc2)n1 |  | inactive: 103%
41 | Cc1cc(=O)oc2cc(OC(C(=O)O)c3ccccc3)ccc12 (stereo not drawn) |  | inactive: 12.9%
42 | CCOC(=O)C[n+]1c(C)csc1C |  | inactive: -12.7%
43 | O=C(OCCc1cc2ccccc2c(=O)o1)c1ccccc1C(F)(F)F | inconclusive: 16.5 µM [inhibitor, single point] | 
44 | COc1ccc(C(=O)N2CCN(C(=O)c3ccc(-c4ccccc4)cc3)CC2)cc1OC |  | inactive: 0%
45 | Cc1ccc(CNc2oc(-c3cccs3)nc2C#N)cc1 | inconclusive: 9.28 µM [inhibitor, partial curve] | 
46 | Cn1c(-c2cccc(F)c2)nc2c1c(=O)[nH]c(=O)n2Cc1ccccc1 | inconclusive: 11.7 µM [inhibitor, single point] | 
47 | CCCNC(=O)c1cc(Cl)c(NC(=O)C2=CSCCO2)cc1OC |  | inactive: 3.24%
48 | Cc1ccnc(SCC(=O)Nc2sccc2C#N)n1 | inconclusive: 10.4 µM [inhibitor, single point] | 
49 | CCN1/C(=C\C=C\C2=[N+](CC)c3ccccc3C2(C)C)C(C)(C)c2ccccc21 | active: 0.147 µM | 
50 | CC1Oc2ccccc2N(CC(=O)c2ccccc2)C1=O (stereo not drawn) | inconclusive: 9.28 µM [inhibitor, partial curve] | 
51 | Cc1ccc(CN2CCC(Oc3cccc(C(=O)N(C)CCN(C)C)c3)CC2)cc1C |  | inactive: 6.99%
52 | Cc1ccc2c(c1)C1C=CCC1C(C(=O)O)N2 (stereo not drawn) | active: 2.62 µM | 

Row | SMILES | Potency | activity change, negative = inhibition
53 | Cc1ccc(CNC(=O)Cn2nnc(C(=O)Nc3cc(C)ccc3C)c2N)cc1 |  | inactive: 6.06%
54 | OCCCNc1cc(-c2ccnc(Nc3cccc(Cl)c3)n2)ccn1 | active: 0.415 µM | 
55 | O=S(=O)(NC1CC(NS(=O)(=O)OCC(Cl)(Cl)Cl)C2CCCCC12)OCC(Cl)(Cl)Cl (stereo not drawn) | inconclusive: 18.5 µM [inhibitor, single point] | 
56 | CCCCCCCSc1nsc(N)n1 |  | inactive: -12.6%
57 | O=C(NNc1c2ccccc2nc2ccccc12)c1cc2ccccc2cc1O | active: 3.7 µM | 
58 | Cc1ccc(-c2nnc(N3CC(C)OC(C)C3)c3ccccc23)cc1 (stereo not drawn) | inconclusive: 14.7 µM [inhibitor, partial curve, poor fit] | 
59 | CC(=O)c1ccc(NC(=O)c2ccc(-n3cnnn3)cc2)cc1 | inconclusive: 0.657 µM [inhibitor, full curve] | 
60 | O=C(c1ccccc1NS(=O)(=O)c1ccc2c(c1)OCCO2)N1CCOCC1 |  | inactive: -17.7%
61 | Cc1nnc(-c2cnn(-c3ccccc3)c2N)n1Cc1ccc(F)cc1 | inconclusive: 0.0083 µM [inhibitor, full curve, poor fit] | 
62 | CCc1noc(C)c1C(=O)Nc1cc(S(=O)(=O)N2CCOCC2)ccc1OC(C)C | inconclusive: 10.4 µM [inhibitor, partial curve, poor fit] | 
63 | CC(NC(=O)c1ccccc1NS(=O)(=O)c1ccc(CCC(=O)O)cc1)c1ccccc1 (stereo not drawn) |  | inactive: 5.3%
64 | Cn1c(=O)n(Cc2ccccc2F)c(=O)c2c1nc1n2CCN1Cc1ccco1 | active: 8.28 µM | 
65 | COCCn1c(CN2CCC(Cc3ccccc3)CC2)nc2c1c(=O)n(C)c(=O)n2C | active: 5.22 µM | 
66 | CCCn1cccc(C(=O)Nc2ccc(OC)cc2)c1=O |  | inactive: 24.9%
67 | Cc1cccc(N(Cc2cc(=O)[nH]c3ccccc23)C(=O)CCl)c1 | inconclusive: 3.7 µM [inhibitor, partial curve, poor fit] | 
68 | CCN1CCN(C2=CC3=CC(=C(C#N)C#N)CCC3CC2)CC1 (stereo not drawn) | inconclusive: 7.38 µM [inhibitor, single point] | 
69 | Cc1cc(S(=O)(=O)n2[nH]c(=O)c(CCO)c2C)c(Cl)cc1Cl |  | inactive: 0.253%
70 | CC(C1CC2CCC1C2)N1CC(O)=C(c2nc3ccccc3[nH]2)C1=N (stereo not drawn) | active: 3.29 µM | 
71 | N=C1c2ccccc2CN1NC(=O)c1ccc(F)cc1 |  | inactive: 34.3%
72 | Cc1ccc(C(=O)C(C)OC(=O)CN2C(=O)NC3(CCCC3)C2=O)cc1 (stereo not drawn) |  | inactive: 61.6%
73 | CC1(C)Cc2cccc(OCC(=O)OCc3nnc(-c4ccccc4)o3)c2O1 |  | inactive: -24.7%
74 | CC1(C)CC(NC(=O)c2ccccc2F)CC(C)(C)N1 | inconclusive: 0.208 µM [inhibitor, full curve, poor fit] | 
75 | COCCn1c(SC(C)C(=O)Nc2ccc3c(c2)OCCO3)nc2ccccc2c1=O (stereo not drawn) | active: 13.1 µM | 
76 | Cc1nn2c3c(cnc2c1-c1ccc(Cl)cc1)C(=O)CC(c1ccco1)C3 (stereo not drawn) | inconclusive: 18.5 µM [inhibitor, partial curve, poor fit] | 
77 | COc1ccc(OC)c(/C=C/C(=O)OCC(=O)Nc2nnc(-c3ccccc3)o2)c1 |  | inactive: -24.1%
78 | CCOC(=O)c1cnc(C(F)(F)F)nc1Oc1ccccc1 | inconclusive: 2.33 µM [inhibitor, partial curve, poor fit] | 

Entries of single compounds as entered above:
Cn1c(=O)n(Cc2ccccc2F)c(=O)c2c1nc1n2CCN1Cc1ccco1 is listed as Potency: active: 8.28 µM
CC(C)(C)n1nnnc1C(c1cccc(C#N)c1)N1CCCc2ccccc21 (stereo not drawn) is listed as activity change, negative = inhibition: inactive: 22.9%
Cc1nnc2c(N(C)S(=O)(=O)c3ccccc3)nc3ccccc3n12 is listed as Potency: inconclusive: 18.5 µM [inhibitor, partial curve, poor fit]
